Results deposited as PubChem BioAssay AID1224830 (NIAID, 2016)
Shown is an unselected part of about 18,000 reagents tested. About 2,900 of all reagents (16%) count as active. 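Calls are made per well; low scores hint the gene aids the LPS response, high scores that it dampens it.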 Entries without a mark were called inactive. Repeated entries: four replicate wells of each siRNA pool. No sequences are given here.

Purpose: 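Regulators of TLR4 signalling towards TNF-alpha in macrophage-like cells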 (primary screen)
Cell system: human THP-1 monocytic leukaemia cells, TNF dual-luciferase reporter clone, PMA-differentiated to macrophage-like cells
Reagents: siRNA pool against human genes, 50 nM
Timing: LPS for 4 h, given about 3 days after siRNA transfection
Treatment: bacterial LPS (TLR4 ligand), 10 ng/ml
Read-out: 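Ratio of firefly to renilla light, scaled to the plate median and expressed as a robust z-score per replicate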
Scale: TNF reporter robust z-score: higher = stronger TNF reporter response to LPS
Active means: 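a well is active when its z-score exceeds 2.8 or falls below -1.5; control wells carry no call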

NR1H4 (GeneID 9971) scored TNF reporter robust z-score 0.76.
Against NR1H4 (GeneID 9971), the entry reads TNF reporter robust z-score -0.03.
Depletion of NR1H4 (GeneID 9971) gave: TNF reporter robust z-score 0.46.
NR1H4 (GeneID 9971) showed TNF reporter robust z-score 1.02.
After knock-down of SHISA5 (GeneID 51246) the results were TNF reporter robust z-score -0.9.
For SHISA5 (GeneID 51246), the values are TNF reporter robust z-score -1.72 (active).
After knock-down of SHISA5 (GeneID 51246) the results were TNF reporter robust z-score -1.07.
SHISA5 (GeneID 51246) gave TNF reporter robust z-score -1.33.
Silencing of AKAP1 (GeneID 8165) came out at: TNF reporter robust z-score -0.28.
After knock-down of AKAP1 (GeneID 8165), the record shows TNF reporter robust z-score -0.79.
AKAP1 (GeneID 8165) showed TNF reporter robust z-score -1.39.
AKAP1 (GeneID 8165) scored TNF reporter robust z-score -0.03.
After knock-down of GNPDA1 (GeneID 10007) the results were TNF reporter robust z-score -0.86.
After knock-down of GNPDA1 (GeneID 10007) the results were TNF reporter robust z-score -0.1.
Knock-down of GNPDA1 (GeneID 10007) resulted in: TNF reporter robust z-score -0.94.
GNPDA1 (GeneID 10007) gave TNF reporter robust z-score -0.48.
CBX7 (GeneID 23492) showed TNF reporter robust z-score 0.5.
With knock-down of CBX7 (GeneID 23492) the results were TNF reporter robust z-score 0.76.
CBX7 (GeneID 23492) gave TNF reporter robust z-score 0.11.
Against CBX7 (GeneID 23492) the deposit lists TNF reporter robust z-score 1.53.

2 successive reagents from above, quoted:
SHISA5 (GeneID 51246): TNF reporter robust z-score = -1.07
SHISA5 (GeneID 51246): TNF reporter robust z-score = -1.33
